From patent US20150291697A1
No constants are given. Whether binding was seen depends on the method and setting. Some binding calls cover weakened binding; strength is not graded here.

B1: TfR412 antibody (antibody, V domains shown)
VH: DVQLVESGGGLVQPGGSLRLSCAASGFPFKSYGMQWVRQAPGKGLEWVAVISFDGSSRYYADSVKGRFTISRDNSKNTLYLQMNSLRAEDTAVYYCARDGALWGGYYSPVDVWGQGTLVTVSA
VL: NFMLTQPHSVSESPGKTVTISCTRSSGSIASNSVQWYQQRPGSAPITVIYEDTQRPSGVPDRFSGSIDSSSNSASLTISGLQTEDEADYYCQSYDSAYHWVFGGGTKLAVLG
B2: TfR415 antibody (antibody, V domains shown)
VH: DVQLVESGGGLVQPGGSLRLSCAASGFPFKSYAMHWVRQAPGKGLEWVAVISFDGGSRYYADSVKGRFTISRDNSKNTLYLQMNSLRAEDTAVYYCARDGALWGGYYSPVDVWGQGTLVTVSS
VL: NFMLTQPHSVSESPGKTVTISCTRSSGSIASNSVQWYQQRPGSAPITVIYEDTQRPSGVPDRFSGSIDSSSNSASLTISGLQTEDEADYYCQSYDSAYHWVFGGGTKLAVLG
B3: TfR413 antibody (antibody, V domains shown)
VH: DVQLVESGGGLVQPGGSLRLSCAASGFPFKSYAMHWVRQAPGKGLEWVAVISYDGSNKYYADSVKGRFTISRDNSKNTLYLQMNSLRAEDTAVYYCARDGALWGGYYSPVDVWGQGTLVTVSS
VL: NFMLTQPHSVSESPGKTVTISCTRSSGSIASNSVQWYQQRPGSAPITVIYEDTQRPSGVPDRFSGSIDSSSNSASLTISGLQTEDEADYYCQSYDSAYHWVFGGGTKLAVLG
B4: TfR416 antibody (antibody, V domains shown)
VH: DVQLVESGGGLVQPGGSLRLSCAASGFPFKSYGMQWVRQAPGKGLEWVAVISFDGGSRYYADSVKGRFTISRDNSKNTLYLQMNSLRAEDTAVYYCARDGALWGGYYSPVDVWGQGTLVTVSS
VL: NFMLTQPHSVSESPGKTVTISCTRSSGSIASNSVQWYQQRPGSAPITVIYEDTQRPSGVPDRFSGSIDSSSNSASLTISGLQTEDEADYYCQSYDSAYHWVFGGGTKLAVLG
B5: TfR418 antibody (antibody, V domains shown)
VH: DVQLVESGGGLVQPGGSLRLSCAASGFTFSSYGMQWVRQAPGKGLEWVAVISFDGGSRYYADSVKGRFTISRDNSKNTLYLQMNSLRAEDTAVYYCARDGALWGGYYSPVDVWGQGTLVTVSS
VL: NFMLTQPHSVSESPGKTVTISCTRSSGSIASNSVQWYQQRPGSAPITVIYEDTQRPSGVPDRFSGSIDSSSNSASLTISGLQTEDEADYYCQSYDSAYHWVFGGGTKLAVLG
B6: TfR422 antibody (antibody, V domains shown)
VH: QVQLVQSGGGVVQPGRSLRLSCAASGFPFKSYGMHWVRQAPGKGLEWVAVISFDGSSKYYADSVKGRFTISRDNSKNTLYLQMNSLRGEDTAVYYCARDSNFWSGYYSPVDVWGQGTTVTVSS
VL: DFMLTQPQSVSESPGKTVTISCTRSSGSIASNYVQWYQQRPGSSPTTVIYEDNQRPSGVPDRFSGSIDSSSNSASLTISGLKTEDEADYYCQSYDSSNQWVFGGGTKLAVLG
B7: TfR420 antibody (antibody, V domains shown)
VH: DVQLVESGGGLVQPGGSLRLSCAASGFTFSSYAMQWVRQAPGKGLEWVSIVSFDGGNRYYADSIKGRFTISRDNSKNTLYLQMNSLRAEDTAVYYCARDGALWGGYYSPIDVWGQGTLVTVSS
VL: NFMLTQPHSVSESPGKTVTISCTRSSGSIASNSVQWYQQRPGSAPITVIYEDTQRPSGVPDRFSGSIDSSSNSASLTISGLQTEDEADYYCQSYDSAYHWVFGGGTKLAVLG
B8: TfR421 antibody (antibody, V domains shown)
VH: QVQLVQSGGGVVQPGRSLRLSCAASGFPFKSYGMHWVRQAPGKGLEWVAVISFDGSSKYYADSVKGRFTISRDNSKNTLYLQMNSLRGEDTAVYYCARDSNFWSGYYSPVDVWGQGTTVTVSS
VL: DFMLTQPHSVSESPGKTVTISCTRSSGSIASNYVQWYQQRPGSSPTTVIYEDNQRPSGVPDRFSGSIDSSSNSASLTISGLKTEDEADYYCQSYDSSNHWVFGGGTKLAVLG
B9: TfR417 antibody (antibody, V domains shown)
VH: DVQLVESGGGLVQPGGSLRLSCAASGFTFSSYAMQWVRQAPGKGLEWVAVISFDGGSRYYADSVKGRFTISRDNSKNTLYLQMNSLRAEDTAVYYCARDGALWGGYYSPVDVWGQGTLVTVSS
VL: NFMLTQPHSVSESPGKTVTISCTRSSGSIASNSVQWYQQRPGSAPITVIYEDTQRPSGVPDRFSGSIDSSSNSASLTISGLQTEDEADYYCQSYDSAYHWVFGGGTKLAVLG
B10: TfR419 antibody (antibody, V domains shown)
VH: DVQLVESGGGLVQPGGSLRLSCAASGFTFSSYAMQWVRQAPGKGLEWVSVISFDGGNRYYADSVKGRFTISRDNSKNTLYLQMNSLRAEDTAVYYCARDGALWGGYYSPVDVWGQGTLVTVSS
VL: NFMLTQPHSVSESPGKTVTISCTRSSGSIASNSVQWYQQRPGSAPITVIYEDTQRPSGVPDRFSGSIDSSSNSASLTISGLQTEDEADYYCQSYDSAYHWVFGGGTKLAVLG
B11: TfR414 antibody (antibody, V domains shown)
VH: DVQLVESGGGLVQPGGSLRLSCAASGFPFKSYAMHWVRQAPGKGLEWVAVISFDGSNKYYADSVKGRFTISRDNSKNTLYLQMNSLRAEDTAVYYCARDGALWGGYYSPVDVWGQGTLVTVSS
VL: NFMLTQPHSVSESPGKTVTISCTRSSGSIASNSVQWYQQRPGSAPITVIYEDTQRPSGVPDRFSGSIDSSSNSASLTISGLQTEDEADYYCQSYDSAYHWVFGGGTKLAVLG
B12: TfR423 antibody (antibody, V domains shown)
VH: QVQLVQSGGGVVQPGRSLRLSCAASGFPFKSYGMHWVRQAPGKGLEWVAVISFDGSSKYYADSVKGRFTISRDNSKNTLYLQMNSLRGEDTAVYYCARDSNFWSGYYSPVDVWGQGTTVTVSS
VL: DSALTQPPSVSGSPGQSVTISCTGSSSNIIASNSVQWYQQLPGTAPKTVIYEDTQRPSGVPDRFSGSKDSSGNTASLTISGLQAEDEADYYCQSYDSAYHWVFGGGTKLAVLG
B13: TfR428 antibody (antibody, V domains shown)
VH: QVQLVQSGGGVVQPGRSLRLSCAASGFPFKSYGMHWVRQAPGKGLEWVAVISFDGSSKYYADSVKGRFTISRDNSKNTLYLQMNSLRGEDTAVYYCARDSNFWSGYYSPVDVWGQGTTVTVSS
VL: DIQMTQSPSTLSASVGDRVTITCRASQIASNSVQWYQQKPGKAPKTVIYEDTQLESGVPSRFSGSGSGTEFTLTISSLQPDDFATYYCQSYDSAYHWVFGQGTKVEIKR
B14: TfR432 antibody (antibody, V domains shown)
VH: QVQLVQSGGGVVQPGRSLRLSCAASGFPFKSYGMHWVRQAPGKGLEWVAVISFDGSSKYYADSVKGRFTISRDNSKNTLYLQMNSLRGEDTAVYYCARDSNFWSGYYSPVDVWGQGTTVTVSS
VL: DIQMTQSPSSLSASVGDRVTITCRASQIASNSVQWYQQKPGTAPKTVIYEDTQLQSGVPSRFSGSGSGTEFTLTINSLQPEDFATYYCQSYNSAYHWVFGQGTKVEIKR
B15: TfR424 antibody (antibody, V domains shown)
VH: QVQLVQSGGGVVQPGRSLRLSCAASGFPFKSYGMHWVRQAPGKGLEWVAVISFDGSSKYYADSVKGRFTISRDNSKNTLYLQMNSLRGEDTAVYYCARDSNFWSGYYSPVDVWGQGTTVTVSS
VL: DSALTQPPSVSGSPGQSVTISCTGSSSNIIASNSVQWYQQLPGTAPKTVIYENTQRPSGVPDRFSGSKDSSGNTASLTISGLQAEDEADYYCSSYDSAYHWVFGGGTKLAVLG
B16: TfR429 antibody (antibody, V domains shown)
VH: QVQLVQSGGGVVQPGRSLRLSCAASGFPFKSYGMHWVRQAPGKGLEWVAVISFDGSSKYYADSVKGRFTISRDNSKNTLYLQMNSLRGEDTAVYYCARDSNFWSGYYSPVDVWGQGTTVTVSS
VL: DIQMTQSPSTLSASVGDRVTITCRASQIASNSVQWYQQKPGKAPKTVIYEDTQLESGVPSRFSGSGSGTEFTLTISSLQPDDFATYYCQSYNSAYHWVFGQGTKVEIKR
B17: TfR426 antibody (antibody, V domains shown)
VH: QVQLVQSGGGVVQPGRSLRLSCAASGFPFKSYGMHWVRQAPGKGLEWVAVISFDGSSKYYADSVKGRFTISRDNSKNTLYLQMNSLRGEDTAVYYCARDSNFWSGYYSPVDVWGQGTTVTVSS
VL: DFMLTQPQSVSESPGKTVIISCTRSTGTIASNSVQWYQQRPGRAPTTVIFDETQRPSGVPDRFSGSIDRSSNSASLTISGLQTEDEADYYCQSYDSRDQWVFGGGTKLTVLG
B18: TfR427 antibody (antibody, V domains shown)
VH: QVQLVQSGGGVVQPGRSLRLSCAASGFPFKSYGMHWVRQAPGKGLEWVAVISFDGSSKYYADSVKGRFTISRDNSKNTLYLQMNSLRGEDTAVYYCARDSNFWSGYYSPVDVWGQGTTVTVSS
VL: DIQMTQSPSSLSASVGDRVTITCRASQIASNSVQWYQQKPGKAPKTVIYEDTQLESGVPSRFSGSGSGTDFTLTISSLQPEDFATYYCQSYDSAYHWVFGQGTKVEIKR
B19: TfR425 antibody (antibody, V domains shown)
VH: QVQLVQSGGGVVQPGRSLRLSCAASGFPFKSYGMHWVRQAPGKGLEWVAVISFDGSSKYYADSVKGRFTISRDNSKNTLYLQMNSLRGEDTAVYYCARDSNFWSGYYSPVDVWGQGTTVTVSS
VL: DFMLTQPHSVSESPGKTVIISCTRSDGTIAGYYVQWYQQRPGRAPTTVIFEDTQRPSGVPDRFSGSIDRSSNSASLTISGLQTEDEADYYCQSYDSRDHWVFGGGTKLTVLG
B20: TfR431 antibody (antibody, V domains shown)
VH: QVQLVQSGGGVVQPGRSLRLSCAASGFPFKSYGMHWVRQAPGKGLEWVAVISFDGSSKYYADSVKGRFTISRDNSKNTLYLQMNSLRGEDTAVYYCARDSNFWSGYYSPVDVWGQGTTVTVSS
VL: DIQMTQSPSSLSASVGDRVTITCRASQIASNSVQWYQQKPGTAPKTVIYEDTQLQSGVPSRFSGSGSGTEFTLTINSLQPEDFATYYCQSYDSAYHWVFGQGTKVEIKR
B21: TfR430 antibody (antibody, V domains shown)
VH: QVQLVQSGGGVVQPGRSLRLSCAASGFPFKSYGMHWVRQAPGKGLEWVAVISFDGSSKYYADSVKGRFTISRDNSKNTLYLQMNSLRGEDTAVYYCARDSNFWSGYYSPVDVWGQGTTVTVSS
VL: DIQMTQSPSTLSASVGDRVTITCRASQIASNSVQWYQQKPGKAPKTVIYEDTQLESGVPSRFSGSGSGTEFTLTISSLQPDDFATYYCQSYNSAYQWVFGQGTKVEIKR

Target: human transferrin receptor (TfR) on cells (human) (UniProt P02786)
Assay: flow cytometry on TfR-expressing K562 cells, Alexa488-anti-human IgG

binding, binds:
B1, B2, B3, B4, B5, B6, B7, B8, B9, B10, B11, B12, B13, B14, B15, B16, B17, B18, B19, B20, B21
